The values below come from PMC4416881, “Regulation of Active DNA Demethylation by a Methyl-CpG-Binding Domain Protein in Arabidopsis thaliana” (PLoS Genetics, 2015).

No constants are given. Whether binding was seen depends on the method and setting. For part of these data: Binding seen in cells or lysates may run through a third protein. Some binding calls cover weakened binding; strength is not graded here. Where a sequence is shown, tags or fusion partners need not be part of it.

Assay [1] concerns the target T1, IDM2 (yeast two-hybrid fusion) (Arabidopsis thaliana) (UniProt Q8RWL4).
T1 sequence: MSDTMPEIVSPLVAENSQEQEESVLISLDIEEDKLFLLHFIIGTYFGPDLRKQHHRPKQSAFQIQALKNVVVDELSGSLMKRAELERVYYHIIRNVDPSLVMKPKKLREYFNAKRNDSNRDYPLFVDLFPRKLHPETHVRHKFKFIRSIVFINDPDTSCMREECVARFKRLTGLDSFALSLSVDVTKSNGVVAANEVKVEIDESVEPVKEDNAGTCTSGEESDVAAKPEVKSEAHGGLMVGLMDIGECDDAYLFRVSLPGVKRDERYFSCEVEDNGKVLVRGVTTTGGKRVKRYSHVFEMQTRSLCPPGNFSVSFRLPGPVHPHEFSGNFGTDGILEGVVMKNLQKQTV
Description: two-hybrid; pGBK-T7 (BD) and pGAD-T7 (AD) fusions in yeast AH109; growth on medium lacking Leu, Trp, Ade and His.

In assay [2] the target is T2, IDM2 (split-luciferase fusion) (Arabidopsis thaliana) (UniProt Q8RWL4).
T2 sequence: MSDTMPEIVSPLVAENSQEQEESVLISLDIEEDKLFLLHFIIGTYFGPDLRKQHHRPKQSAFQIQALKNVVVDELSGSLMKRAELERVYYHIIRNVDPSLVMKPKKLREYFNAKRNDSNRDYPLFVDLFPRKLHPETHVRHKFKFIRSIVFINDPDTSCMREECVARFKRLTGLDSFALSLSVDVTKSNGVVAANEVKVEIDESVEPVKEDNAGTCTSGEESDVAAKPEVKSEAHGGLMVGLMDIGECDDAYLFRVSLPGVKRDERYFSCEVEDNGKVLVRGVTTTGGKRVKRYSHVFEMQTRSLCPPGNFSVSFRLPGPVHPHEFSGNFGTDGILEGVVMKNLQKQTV
The assay can be described thus: split reporter; split-luciferase (NLUC / CLUC fusions) co-expressed in N. benthamiana leaves with p19.

Assay [3] concerns the target T3, IDL1 (yeast two-hybrid fusion) (Arabidopsis thaliana) (UniProt Q9SYQ0).
T3 sequence: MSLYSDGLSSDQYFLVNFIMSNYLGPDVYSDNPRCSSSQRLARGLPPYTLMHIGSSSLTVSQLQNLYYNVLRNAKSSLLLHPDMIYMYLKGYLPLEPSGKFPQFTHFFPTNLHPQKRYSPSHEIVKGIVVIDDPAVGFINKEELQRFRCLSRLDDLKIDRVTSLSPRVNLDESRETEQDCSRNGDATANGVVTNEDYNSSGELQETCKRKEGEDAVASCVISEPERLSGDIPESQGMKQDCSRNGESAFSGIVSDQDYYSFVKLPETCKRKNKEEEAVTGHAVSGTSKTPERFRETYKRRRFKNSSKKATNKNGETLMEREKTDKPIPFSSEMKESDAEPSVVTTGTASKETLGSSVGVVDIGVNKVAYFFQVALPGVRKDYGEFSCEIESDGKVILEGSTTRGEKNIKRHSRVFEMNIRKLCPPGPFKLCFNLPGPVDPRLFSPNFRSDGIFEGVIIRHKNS
The assay can be described thus: two-hybrid; pGBK-T7 (BD) and pGAD-T7 (AD) fusions in yeast AH109; growth on medium lacking Leu, Trp, Ade and His.

In assay [4] the target is T4, IDL1 (split-luciferase fusion) (Arabidopsis thaliana) (UniProt Q9SYQ0).
T4 sequence: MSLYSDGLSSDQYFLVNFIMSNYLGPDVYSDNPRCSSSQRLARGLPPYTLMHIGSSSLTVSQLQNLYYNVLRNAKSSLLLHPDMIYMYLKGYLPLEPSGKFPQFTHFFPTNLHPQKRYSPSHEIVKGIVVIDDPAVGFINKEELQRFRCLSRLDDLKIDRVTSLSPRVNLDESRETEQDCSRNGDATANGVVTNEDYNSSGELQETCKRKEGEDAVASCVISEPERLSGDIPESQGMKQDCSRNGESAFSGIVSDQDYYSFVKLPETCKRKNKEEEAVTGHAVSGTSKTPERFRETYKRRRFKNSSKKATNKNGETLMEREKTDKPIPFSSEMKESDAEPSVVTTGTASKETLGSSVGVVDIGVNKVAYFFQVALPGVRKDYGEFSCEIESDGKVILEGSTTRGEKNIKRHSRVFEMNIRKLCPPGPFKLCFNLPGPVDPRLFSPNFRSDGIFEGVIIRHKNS
Description: split reporter; split-luciferase (NLUC / CLUC fusions) co-expressed in N. benthamiana leaves with p19.

Assay [5] concerns the target T5, IDL1 (transiently expressed for co-IP) (Arabidopsis thaliana) (UniProt Q9SYQ0).
T5 sequence: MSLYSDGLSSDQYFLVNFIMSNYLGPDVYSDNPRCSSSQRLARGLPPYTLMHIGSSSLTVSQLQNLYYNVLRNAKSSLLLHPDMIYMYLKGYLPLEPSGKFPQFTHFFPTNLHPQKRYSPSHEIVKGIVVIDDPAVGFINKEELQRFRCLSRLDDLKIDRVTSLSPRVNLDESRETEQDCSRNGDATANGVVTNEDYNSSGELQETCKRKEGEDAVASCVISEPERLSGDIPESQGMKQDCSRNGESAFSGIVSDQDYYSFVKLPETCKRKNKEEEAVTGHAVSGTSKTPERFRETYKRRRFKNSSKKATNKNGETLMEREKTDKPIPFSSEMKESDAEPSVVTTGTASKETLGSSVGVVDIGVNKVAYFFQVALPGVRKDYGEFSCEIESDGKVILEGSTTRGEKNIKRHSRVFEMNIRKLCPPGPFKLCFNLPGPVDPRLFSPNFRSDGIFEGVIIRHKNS
The assay can be described thus: co-IP; proteins transiently co-expressed in N. benthamiana leaves; GFP-Trap A or anti-c-Myc agarose, 4 h; Western blot. On the technique in general: A western blot detects proteins with antibodies after separation by electrophoresis.

Assay [6] deals with T6, IDM2-GFP (Arabidopsis thaliana) (UniProt Q8RWL4).
T6 sequence: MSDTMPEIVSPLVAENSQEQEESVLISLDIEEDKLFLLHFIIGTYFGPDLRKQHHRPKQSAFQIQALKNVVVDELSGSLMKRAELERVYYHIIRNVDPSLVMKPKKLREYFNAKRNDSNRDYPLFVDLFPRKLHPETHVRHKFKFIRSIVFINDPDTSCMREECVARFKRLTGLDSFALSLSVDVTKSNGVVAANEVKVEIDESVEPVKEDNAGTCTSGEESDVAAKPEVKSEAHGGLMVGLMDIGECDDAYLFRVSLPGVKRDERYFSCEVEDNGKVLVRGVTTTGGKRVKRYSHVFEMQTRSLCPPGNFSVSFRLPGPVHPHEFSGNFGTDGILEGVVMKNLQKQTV
Described as above.

B1: IDL1 (yeast two-hybrid fusion) (protein, UniProt Q9SYQ0 1-463)
chain: MSLYSDGLSSDQYFLVNFIMSNYLGPDVYSDNPRCSSSQRLARGLPPYTLMHIGSSSLTVSQLQNLYYNVLRNAKSSLLLHPDMIYMYLKGYLPLEPSGKFPQFTHFFPTNLHPQKRYSPSHEIVKGIVVIDDPAVGFINKEELQRFRCLSRLDDLKIDRVTSLSPRVNLDESRETEQDCSRNGDATANGVVTNEDYNSSGELQETCKRKEGEDAVASCVISEPERLSGDIPESQGMKQDCSRNGESAFSGIVSDQDYYSFVKLPETCKRKNKEEEAVTGHAVSGTSKTPERFRETYKRRRFKNSSKKATNKNGETLMEREKTDKPIPFSSEMKESDAEPSVVTTGTASKETLGSSVGVVDIGVNKVAYFFQVALPGVRKDYGEFSCEIESDGKVILEGSTTRGEKNIKRHSRVFEMNIRKLCPPGPFKLCFNLPGPVDPRLFSPNFRSDGIFEGVIIRHKNS
As for B1, the binding entry in assay [1] was “binds”.

B2: IDL1 (split-luciferase fusion) (protein, UniProt Q9SYQ0 1-463)
chain: MSLYSDGLSSDQYFLVNFIMSNYLGPDVYSDNPRCSSSQRLARGLPPYTLMHIGSSSLTVSQLQNLYYNVLRNAKSSLLLHPDMIYMYLKGYLPLEPSGKFPQFTHFFPTNLHPQKRYSPSHEIVKGIVVIDDPAVGFINKEELQRFRCLSRLDDLKIDRVTSLSPRVNLDESRETEQDCSRNGDATANGVVTNEDYNSSGELQETCKRKEGEDAVASCVISEPERLSGDIPESQGMKQDCSRNGESAFSGIVSDQDYYSFVKLPETCKRKNKEEEAVTGHAVSGTSKTPERFRETYKRRRFKNSSKKATNKNGETLMEREKTDKPIPFSSEMKESDAEPSVVTTGTASKETLGSSVGVVDIGVNKVAYFFQVALPGVRKDYGEFSCEIESDGKVILEGSTTRGEKNIKRHSRVFEMNIRKLCPPGPFKLCFNLPGPVDPRLFSPNFRSDGIFEGVIIRHKNS
As for B2, in assay [2], the binding entry is listed as “binds”.

B3: MBD7 (yeast two-hybrid fusion) (protein, UniProt Q9FJF4 1-306)
chain: MQTRSSSSPSANHRRETQLQIADPTSFCGKIMPGWTVVNRPRSSNNGVVDTYFIEPGTGRQFSSLEAIHRHLAGEVNDRRLTRAGSFFQDKTRVYEGSRTKQDHCGVEYASKGFRLPRGWSVEEVPRKNSHYIDKYYVERKTGKRFRSLVSVERYLRESRNSIEQQLRVLQNRRGHSKDFRLPDGWIVEEKPRRSSSHIDRSYIEPGTGNKFRSMAAVERYLISVGNITLDSVSMVHSERLPLLMNRNGIRFQSEVIDPNPPKKVKWVLTGSGGNMFTANVRGSNVSSLVKHTWSEAFVSLIEDRS
For B3, the binding entry in assay [3] and in assay [1] was “binds” throughout.

B4: MBD7 (split-luciferase fusion) (protein, UniProt Q9FJF4 1-306)
chain: MQTRSSSSPSANHRRETQLQIADPTSFCGKIMPGWTVVNRPRSSNNGVVDTYFIEPGTGRQFSSLEAIHRHLAGEVNDRRLTRAGSFFQDKTRVYEGSRTKQDHCGVEYASKGFRLPRGWSVEEVPRKNSHYIDKYYVERKTGKRFRSLVSVERYLRESRNSIEQQLRVLQNRRGHSKDFRLPDGWIVEEKPRRSSSHIDRSYIEPGTGNKFRSMAAVERYLISVGNITLDSVSMVHSERLPLLMNRNGIRFQSEVIDPNPPKKVKWVLTGSGGNMFTANVRGSNVSSLVKHTWSEAFVSLIEDRS
As to B4, the binding entry in assay [4] and in assay [2] was “binds” each time.

B5: Flag-tagged MBD7 (protein, UniProt Q9FJF4 1-306)
chain: MQTRSSSSPSANHRRETQLQIADPTSFCGKIMPGWTVVNRPRSSNNGVVDTYFIEPGTGRQFSSLEAIHRHLAGEVNDRRLTRAGSFFQDKTRVYEGSRTKQDHCGVEYASKGFRLPRGWSVEEVPRKNSHYIDKYYVERKTGKRFRSLVSVERYLRESRNSIEQQLRVLQNRRGHSKDFRLPDGWIVEEKPRRSSSHIDRSYIEPGTGNKFRSMAAVERYLISVGNITLDSVSMVHSERLPLLMNRNGIRFQSEVIDPNPPKKVKWVLTGSGGNMFTANVRGSNVSSLVKHTWSEAFVSLIEDRS
Regarding B5, the binding entry in assay [5] and in assay [6] was “binds” in each case.

B6: MBD6 (yeast two-hybrid fusion) (protein, UniProt Q9LTJ1 1-225)
chain: MSDSVAGDFPPDPLLASGAFISSAGDGTLDSSAKRRPIQGGIGISGSGESVRIGMANGTDQVNHQTESKSRKRAAPGDNWLPPGWRVEDKIRTSGATAGSVDKYYYEPNTGRKFRSRTEVLYYLEHGTSKRGTKKAENTYFNPDHFEGQGSNRVTRTATVPPPPPPPLDFDFKNPPDKVSWSMANAGEEGWIPNIGDVKVQDSVRRDWSTAFTFITSRNPSKVSA
For the molecule B6, the binding result in assay [3] and in assay [1] was “binds” each time.

B7: MBD6 (split-luciferase fusion) (protein, UniProt Q9LTJ1 1-225)
chain: MSDSVAGDFPPDPLLASGAFISSAGDGTLDSSAKRRPIQGGIGISGSGESVRIGMANGTDQVNHQTESKSRKRAAPGDNWLPPGWRVEDKIRTSGATAGSVDKYYYEPNTGRKFRSRTEVLYYLEHGTSKRGTKKAENTYFNPDHFEGQGSNRVTRTATVPPPPPPPLDFDFKNPPDKVSWSMANAGEEGWIPNIGDVKVQDSVRRDWSTAFTFITSRNPSKVSA
B7: the binding entry in assay [4] and in assay [2] was “binds” throughout.
